Reference: patent US6962713B2, “Spot-on formulations for combating parasites” (Merial, priority 1919, dated 2005)
Values joined by “and” are separate entries in the source; they are usually repeats but may differ in a detail not shown here. Equal values may be shown once. This continues a long series; more values of the same kind are listed elsewhere.

Experiment: Plasma kinetics of ivermectin after oral administration of Cardomec to dogs
Assay type: in vivo, dog
Details: Cardomec oral 6 μg.kg^−1, fasted dogs, individual dogs
Experimental: Five male Beagle dogs received a dose of approximately 6 μg.kg^−1 of ivermectin, i.e., one 68 μg Cardomec® tablet per dog. The animals were fasted prior to administration and up to 6 hours after treatment to prevent a possible interaction with food.
Blood samples were collected at intervals up to 28 days post-dosing. The determination of ivermectin in dog plasma was carried out by HPLC using fluorescence detection after derivatization. The limit of quantification was 100 pg.ml^−1.

With ivermectin the “Plasma concentrations of ivermectin” value (0 h) was “BLQ (Below the Limit of Quantification (100 pg.ml^−1))”, the “Plasma concentrations of ivermectin” value (0.75 h) was “BLQ (Below the Limit of Quantification (100 pg.ml^−1)) (3×) and 197 pg.ml^−1 and 400 pg.ml^−1” and the “Plasma concentrations of ivermectin” value (1.5 h) was 228 pg.ml^−1 and 594 pg.ml^−1 and BLQ (Below the Limit of Quantification (100 pg.ml^−1)) (2×) and 1856 pg.ml^−1. For the same substance, the “Plasma concentrations of ivermectin” value (3 h) was 2964 pg/mL and 629 pg/mL and 108 pg/mL and 1871 pg/mL and 422 pg/mL, the “Plasma concentrations of ivermectin” value (4 h) was 2554 pg/mL and 475 pg/mL and 143 pg/mL and 1955 pg/mL and 363 pg/mL and the “Plasma concentrations of ivermectin” value (6 h) was 2238 pg/mL and 462 pg/mL and 219 pg/mL and 1584 pg/mL and 277 pg/mL. For the same substance, the “Plasma concentrations of ivermectin” value (8 h) was 1499 pg/mL and 416 pg/mL and 327 pg/mL and 1379 pg/mL and 226 pg/mL, the “Plasma concentrations of ivermectin” value (10 h) was 1379 pg/mL and 758 pg/mL and 534 pg/mL and 1136 pg/mL and 183 pg/mL and the “Plasma concentrations of ivermectin” value (12 h) was 1374 pg/mL and 911 pg/mL and 557 pg/mL and 902 pg/mL and 170 pg/mL. For the same substance, the “Plasma concentrations of ivermectin” value (24 h) was 875 pg/mL and 626 pg/mL and 347 pg/mL and 650 pg/mL and 125 pg/mL, the “Plasma concentrations of ivermectin” value (32 h) was 612 pg.ml^−1 and 429 pg.ml^−1 and 214 pg.ml^−1 and 434 pg.ml^−1 and BLQ (Below the Limit of Quantification (100 pg.ml^−1)) and the “Plasma concentrations of ivermectin” value (D 2) was 463 pg/mL and 362 pg/mL and 195 pg/mL and 320 pg/mL. For the same substance, the “Plasma concentrations of ivermectin” value (D 3) was 334 pg/mL and 201 pg/mL and 126 pg/mL and 202 pg/mL, the “Plasma concentrations of ivermectin” value (D 4) was 264 pg.ml^−1 and 133 pg.ml^−1 and BLQ (Below the Limit of Quantification (100 pg.ml^−1)) and 141 pg.ml^−1 and the “Plasma concentrations of ivermectin” value (D 5) was 200 pg.ml^−1 and BLQ (Below the Limit of Quantification (100 pg.ml^−1)) (2×). The “Plasma concentrations of ivermectin” value (D 7) was 140 pg.ml^−1 and BLQ (Below the Limit of Quantification (100 pg.ml^−1)) (2×), the “Plasma concentrations of ivermectin” value (D 9) was “BLQ (Below the Limit of Quantification (100 pg.ml^−1))” and the “Plasma concentrations of ivermectin” value (D 14) was “BLQ (Below the Limit of Quantification (100 pg.ml^−1))”. The “Plasma concentrations of ivermectin” value (D 21) was “BLQ (Below the Limit of Quantification (100 pg.ml^−1))”.
